The source of these data is the supplement of paper PMC12067093, “Discovery and optimisation of a covalent ligand for TRIM25 and its application to targeted protein ubiquitination” (Chemical Science, 2025).

Compound in the assay: Cc1cc(ccc1-c1ccccc1)C(=O)N1CCCN(CC1)C(=O)CCl [compound 10]
The experiment in a line: probe-labelled cysteine peptide fold change vs DMSO (competition) (log2 fold change); higher = less target engagement (more negative = stronger competition). The note with it: THP-1, incubation time: 4 h.

The list shows a part of the results.
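Also: competitive profiling in live THP-1 cells: cysteine peptides tagged with an iodoacetamide desthiobiotin (IA-DTB) probe, intensity after compound treatment relative to DMSO-treated cells.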

Take “PPP1R3G_B7ZBB8_76_EEAAPQEQEELLECR (UniProt B7ZBB8)”: the “probe-labelled cysteine peptide fold change” value reads like this: (10 µM) -0.204; (50 µM) -0.563.

“PPIP5K2_O43314_298_VCLAFK (UniProt O43314)”: the “probe-labelled cysteine peptide fold change” value by setting is: (10 µM) 0.00558; (50 µM) 0.495.

As for “PPP1R8_Q12972_16_AAAANSGSSLPLFDCPTWAGKPPPGLHLDVVK (UniProt Q12972)”, the “probe-labelled cysteine peptide fold change” value is 0.0744 (10 µM) and 0.366 (50 µM).

Consider “PREX1_Q8TCU6_1612_CIMQATDIMR (UniProt Q8TCU6)”, for which the “probe-labelled cysteine peptide fold change” value (10 µM) is -0.0971 and the “probe-labelled cysteine peptide fold change” value (50 µM) came out at 0.0897.

For “PPT1_P50897_152+160_CPGESSHICDFIR (UniProt P50897)”, the “probe-labelled cysteine peptide fold change” value by setting is: (10 µM) -0.485; (50 µM) -0.321.

With “PRDX5_P30044_100_KGVLFGVPGAFTPGCSK (UniProt P30044)”, the “probe-labelled cysteine peptide fold change” value reads like this: (10 µM) -0.389; (50 µM) -0.855.

As for “PPT1_P50897_46_ALQHLDPPAPLPLVIWHGMGDSCCNPLSMGAIKK (UniProt P50897)”, the “probe-labelled cysteine peptide fold change” value is 0.0508 (10 µM) and -0.69 (50 µM).

“PPM1A_P35813_72_YCCEHLLDHITNNQDFK (UniProt P35813)”: the “probe-labelled cysteine peptide fold change” value is, setting by setting: (10 µM) 0.0202; (50 µM) -0.0868.

In the case of “PRDX2_P32119_70_KLGCEVLGVSVDSQFTHLAWINTPR (UniProt P32119)”, the “probe-labelled cysteine peptide fold change” value by setting is: (10 µM) 0.0933; (50 µM) 0.0312.

Consider “PREB_Q9HCU5_128_KCGAETQHEGLELR (UniProt Q9HCU5)”, for which the “probe-labelled cysteine peptide fold change” value is, setting by setting: (10 µM) -0.113; (50 µM) -0.181.

Turning to “PPP1R12A_O14974_48_VKFDDGAVFLAACSSGDTDEVLK (UniProt O14974)”, the “probe-labelled cysteine peptide fold change” value by setting is: (10 µM) 0.0931; (50 µM) -0.22.

“PPP4R1_Q8TF05_663_QNWHCLR (UniProt Q8TF05)”: the “probe-labelled cysteine peptide fold change” value runs as follows: (10 µM) 0.0257; (50 µM) -0.088.

As for “PPP1R8_Q12972_16_AAAANSGSSLPLFDCPTWAGKPPPGLHLDVVKGDK (UniProt Q12972)”, the “probe-labelled cysteine peptide fold change” value is -0.0956 (10 µM) and -0.45 (50 µM).

“PRC1_O43663_322_QAFAPFCAEDYTESLLQLHDAEIVR (UniProt O43663)”: the “probe-labelled cysteine peptide fold change” value reads like this: (10 µM) 0.426; (50 µM) 0.522.

With “PRDX1_Q06830_173_HGEVCPAGWKPGSDTIKPDVQK (UniProt Q06830)”, the “probe-labelled cysteine peptide fold change” value by setting is: (10 µM) -0.0994; (50 µM) -0.184.

Consider “PPP1R21_Q6ZMI0_351_TFSEHLTSYICFLR (UniProt Q6ZMI0)”, for which the “probe-labelled cysteine peptide fold change” value (10 µM) was -0.214 and the “probe-labelled cysteine peptide fold change” value (50 µM) amounted to 0.315.

“PREB_Q9HCU5_280_QPPPCYLTAWDGSNFLPLR (UniProt Q9HCU5)”: the “probe-labelled cysteine peptide fold change” value is, setting by setting: (10 µM) 0.0926; (50 µM) 0.175.

With “PPM1B_O75688_172_NGQVCFSTQDHKPCNPR (UniProt O75688)”, the “probe-labelled cysteine peptide fold change” value is -0.201 (10 µM) and -0.478 (50 µM).

Take “PREP_P48147_526_QNCFDDFQCAAEYLIK (UniProt P48147)”: the “probe-labelled cysteine peptide fold change” value is -0.352 (10 µM) and -0.0694 (50 µM).

“PRDX3_P30048_229_AFQYVETHGEVCPANWTPDSPTIK (UniProt P30048)”: the “probe-labelled cysteine peptide fold change” value is, setting by setting: (10 µM) -0.104; (50 µM) 0.126.

Consider “PRCP_P42785_233_SGPHCSESIHR (UniProt P42785)”, for which the “probe-labelled cysteine peptide fold change” value (10 µM) turned out to be 0.268 and the “probe-labelled cysteine peptide fold change” value (50 µM) came out at 0.331.

With “PPME1_Q9Y570_347_FQMQVLPQCGHAVHEDAPDK (UniProt Q9Y570)”, the “probe-labelled cysteine peptide fold change” value (10 µM) is -0.0465 and the “probe-labelled cysteine peptide fold change” value (50 µM) was -0.255.

In the case of “PRAM1_Q96QH2_629_RGEILEVIEFTSNEEMLCR (UniProt Q96QH2)”, the “probe-labelled cysteine peptide fold change” value (10 µM) stood at 0.11 and the “probe-labelled cysteine peptide fold change” value (50 µM) is 0.389.

Regarding “PRDX1_Q06830_71+83_KLNCQVIGASVDSHFCHLAWVNTPKK (UniProt Q06830)”, the “probe-labelled cysteine peptide fold change” value was -0.0997 (10 µM) and -0.853 (50 µM).

On to “PPIP5K2_O43314_306_QTVCGFDLLR (UniProt O43314)”, for which the “probe-labelled cysteine peptide fold change” value is -0.124 (10 µM) and 0.329 (50 µM).
